± gives the standard deviation of the averaged measurements. Values are relative to the signal before dosing, not to a vehicle control; the signal also falls without drug.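 Fibroblast labels denote human fibroblasts, mainly primary ones from uterus (C12385, HUF), lung (H6013), bone (Hs27A), adrenal (HADF) and skin (WS1), plus mammary HMF and breast cancer-associated Hs343T. Cancer cells are basal-like or mesenchymal-like triple-negative breast cancer lines. A hit is a response shift exceeding 3x replicate standard deviation. The tissue of the other fibroblasts is not given here.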
Test system: BT20
Test: relative JC-1 red fluorescence (viability) vs pre-drug, coculture with fibroblast (fraction); higher = more viable cancer cells
Method: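 JC-1 labelled TNBC cells cocultured 1:1 (1,500 cells each) with CellTrace Violet stained primary or stromal fibroblasts in 384-well plates in FluoroBrite medium, treated with one of 42 anticancer drugs at 0.1, 1, 10 or 100 uM. JC-1 red fluorescence (mitochondrial integrity in cancer cells only) was read by plate reader every 8 h for 72 h. Values are normalised to each well's pre-drug value. The stock of one drug was tenfold lower, so its dose labels may be too high.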

C#Cc1cccc(Nc2ncnc3cc(OCCOC)c(OCCOC)cc23)c1 [Erlotinib]
relative JC-1 red fluorescence
Settings	8 h	16 h	24 h	32 h	40 h	48 h	56 h	64 h	72 h
0.1 µM, coculture fibroblast: C12385	0.898 ± 0.0097	0.818 ± 0.023	0.786 ± 0.032	0.725 ± 0.026	0.675 ± 0.035	0.644 ± 0.048	0.628 ± 0.058	0.601 ± 0.059	0.587 ± 0.07
0.1 µM, coculture fibroblast: H6013	0.868 ± 0.092	0.883 ± 0.012	0.793 ± 0.033	0.768 ± 0.03	0.866 ± 0.17	0.864 ± 0.18	0.825 ± 0.13	0.85 ± 0.21	0.837 ± 0.21
0.1 µM, coculture fibroblast: H6019	0.881 ± 0.045	0.827 ± 0.044	0.82 ± 0.052	0.785 ± 0.041	0.752 ± 0.036	0.74 ± 0.045	0.713 ± 0.045	0.692 ± 0.044	0.68 ± 0.044
0.1 µM, coculture fibroblast: H6076	0.977 ± 0.0098	0.897 ± 0.002	0.838 ± 0.0024	0.821 ± 0.012	0.796 ± 0.013	0.77 ± 0.018	0.764 ± 0.023	0.77 ± 0.01	0.753 ± 0.024
0.1 µM, coculture fibroblast: H6231	0.726 ± 0.031	0.919 ± 0.018	0.808 ± 0.022	0.745 ± 0.028	0.692 ± 0.031	0.642 ± 0.024	0.599 ± 0.026	0.574 ± 0.023	0.55 ± 0.025
0.1 µM, coculture fibroblast: HADF	0.764 ± 0.019	0.929 ± 0.012	0.8292 ± 0.0078	0.805 ± 0.025	0.776 ± 0.053	0.731 ± 0.074	0.722 ± 0.066	0.684 ± 0.064	0.64 ± 0.051
0.1 µM, coculture fibroblast: HCFa	0.941 ± 0.041	0.925 ± 0.068	0.919 ± 0.069	0.868 ± 0.07	0.847 ± 0.071	0.811 ± 0.059	0.802 ± 0.059	0.792 ± 0.051	0.755 ± 0.046
0.1 µM, coculture fibroblast: HCPF	0.872 ± 0.058	0.922 ± 0.026	0.843 ± 0.011	0.8006 ± 0.0048	0.751 ± 0.0085	0.7061 ± 0.0055	0.667 ± 0.017	0.658 ± 0.031	0.629 ± 0.033
0.1 µM, coculture fibroblast: HHSteC	0.92 ± 0.015	0.833 ± 0.033	0.81 ± 0.042	0.742 ± 0.051	0.689 ± 0.05	0.655 ± 0.053	0.629 ± 0.061	0.609 ± 0.063	0.578 ± 0.06
0.1 µM, coculture fibroblast: HMF	0.832 ± 0.18	0.851 ± 0.033	0.754 ± 0.0089	0.6918 ± 0.0062	0.656 ± 0.0061	0.6118 ± 0.0027	0.5869 ± 0.0043	0.5553 ± 0.0016	0.533 ± 0.0056
0.1 µM, coculture fibroblast: HPFa	0.977 ± 0.011	0.939 ± 0.015	0.964 ± 0.04	0.918 ± 0.072	0.896 ± 0.1	0.849 ± 0.1	0.826 ± 0.12	0.789 ± 0.12	0.731 ± 0.13
0.1 µM, coculture fibroblast: HUF	0.896 ± 0.01	0.811 ± 0.021	0.776 ± 0.026	0.693 ± 0.016	0.638 ± 0.011	0.6006 ± 0.0037	0.5778 ± 0.0038	0.5574 ± 0.002	0.547 ± 0.0061
0.1 µM, coculture fibroblast: Hs5	0.863 ± 0.16	0.892 ± 0.015	0.8403 ± 0.006	0.7908 ± 0.0068	0.749 ± 0.013	0.714 ± 0.013	0.692 ± 0.014	0.6551 ± 0.0059	0.633 ± 0.0073
0.1 µM, coculture fibroblast: Hs27A	0.846 ± 0.07	0.823 ± 0.099	0.888 ± 0.048	0.912 ± 0.065	0.861 ± 0.064	0.828 ± 0.068	0.796 ± 0.07	0.761 ± 0.075	0.706 ± 0.069
0.1 µM, coculture fibroblast: Hs343T	0.935 ± 0.038	0.844 ± 0.0097	0.747 ± 0.034	0.691 ± 0.057	0.653 ± 0.079	0.621 ± 0.097	0.583 ± 0.1	0.575 ± 0.12	0.558 ± 0.12
0.1 µM, coculture fibroblast: WS1	0.8944 ± 0.0081	0.8073 ± 0.0059	0.776 ± 0.017	0.718 ± 0.019	0.659 ± 0.025	0.63 ± 0.041	0.606 ± 0.052	0.575 ± 0.067	0.556 ± 0.073
1 µM, coculture fibroblast: C12385	0.889 ± 0.015	0.836 ± 0.039	0.811 ± 0.053	0.753 ± 0.054	0.706 ± 0.062	0.676 ± 0.052	0.653 ± 0.058	0.647 ± 0.067	0.637 ± 0.072
1 µM, coculture fibroblast: H6013	0.941 ± 0.03	0.9021 ± 0.007	0.872 ± 0.025	0.847 ± 0.037	0.817 ± 0.054	0.811 ± 0.08	0.809 ± 0.093	0.793 ± 0.094	0.783 ± 0.1
1 µM, coculture fibroblast: H6019	0.8619 ± 0.00044	0.7983 ± 0.0006	0.759 ± 0.0089	0.69 ± 0.0093	0.646 ± 0.0068	0.62 ± 0.011	0.582 ± 0.014	0.55 ± 0.01	0.5273 ± 0.0023
1 µM, coculture fibroblast: H6076	0.846 ± 0.1	0.914 ± 0.053	0.845 ± 0.019	0.806 ± 0.051	0.776 ± 0.089	0.761 ± 0.11	0.76 ± 0.13	0.761 ± 0.13	0.746 ± 0.14
1 µM, coculture fibroblast: H6231	0.809 ± 0.12	0.905 ± 0.022	0.834 ± 0.029	0.765 ± 0.035	0.721 ± 0.036	0.673 ± 0.042	0.648 ± 0.054	0.616 ± 0.048	0.591 ± 0.062
1 µM, coculture fibroblast: HADF	0.961 ± 0.016	0.942 ± 0.029	0.91 ± 0.046	0.891 ± 0.07	0.905 ± 0.092	0.902 ± 0.11	0.896 ± 0.12	0.907 ± 0.13	0.891 ± 0.14
1 µM, coculture fibroblast: HCFa	0.909 ± 0.024	0.907 ± 0.057	0.888 ± 0.049	0.858 ± 0.08	0.84 ± 0.088	0.825 ± 0.094	0.796 ± 0.076	0.758 ± 0.04	0.7106 ± 0.0065
1 µM, coculture fibroblast: HCPF	0.915 ± 0.1	0.905 ± 0.018	0.829 ± 0.01	0.7778 ± 0.006	0.721 ± 0.015	0.674 ± 0.028	0.644 ± 0.029	0.627 ± 0.036	0.598 ± 0.027
1 µM, coculture fibroblast: HHSteC	0.897 ± 0.025	0.887 ± 0.015	0.889 ± 0.015	0.8264 ± 0.0019	0.809 ± 0.0091	0.779 ± 0.012	0.767 ± 0.032	0.745 ± 0.035	0.728 ± 0.039
1 µM, coculture fibroblast: HMF	0.958 ± 0.021	0.865 ± 0.011	0.78 ± 0.046	0.731 ± 0.052	0.699 ± 0.048	0.65 ± 0.049	0.623 ± 0.046	0.6 ± 0.053	0.582 ± 0.051
1 µM, coculture fibroblast: HPFa	0.922 ± 0.03	0.886 ± 0.009	0.879 ± 0.021	0.809 ± 0.029	0.797 ± 0.037	0.766 ± 0.035	0.733 ± 0.043	0.709 ± 0.042	0.663 ± 0.047
1 µM, coculture fibroblast: HUF	0.88707 ± 1.1e-05	0.8073 ± 0.008	0.794 ± 0.026	0.722 ± 0.031	0.691 ± 0.031	0.66 ± 0.041	0.643 ± 0.058	0.629 ± 0.068	0.619 ± 0.084
1 µM, coculture fibroblast: Hs5	0.948 ± 0.011	0.883 ± 0.03	0.827 ± 0.05	0.763 ± 0.042	0.733 ± 0.056	0.699 ± 0.057	0.676 ± 0.059	0.657 ± 0.076	0.626 ± 0.084
1 µM, coculture fibroblast: Hs27A	0.738 ± 0.055	0.931 ± 0.076	0.922 ± 0.039	0.917 ± 0.041	0.871 ± 0.05	0.854 ± 0.044	0.83 ± 0.032	0.795 ± 0.025	0.75 ± 0.035
1 µM, coculture fibroblast: Hs343T	0.807 ± 0.052	0.918 ± 0.021	0.81 ± 0.038	0.743 ± 0.051	0.689 ± 0.041	0.636 ± 0.047	0.594 ± 0.037	0.567 ± 0.04	0.543 ± 0.043
1 µM, coculture fibroblast: WS1	0.876 ± 0.044	0.78966 ± 0.00056	0.747 ± 0.011	0.683 ± 0.013	0.628 ± 0.0093	0.604 ± 0.0096	0.582 ± 0.022	0.56 ± 0.032	0.552 ± 0.039

Reference: the supplement of paper PMC6078165
